Results taken from paper PMC8649873.
No constants are given. Whether binding was seen depends on the method and setting. In cells and extracts the contact can be indirect. These calls come from enrichment with a bait or labelling near it, and not all partners need be listed. Tags and fused reporters may be left off the sequences shown.

The chains behind the UniProt entries cited, without tags or fusion partners.
UniProt Q9UMX0: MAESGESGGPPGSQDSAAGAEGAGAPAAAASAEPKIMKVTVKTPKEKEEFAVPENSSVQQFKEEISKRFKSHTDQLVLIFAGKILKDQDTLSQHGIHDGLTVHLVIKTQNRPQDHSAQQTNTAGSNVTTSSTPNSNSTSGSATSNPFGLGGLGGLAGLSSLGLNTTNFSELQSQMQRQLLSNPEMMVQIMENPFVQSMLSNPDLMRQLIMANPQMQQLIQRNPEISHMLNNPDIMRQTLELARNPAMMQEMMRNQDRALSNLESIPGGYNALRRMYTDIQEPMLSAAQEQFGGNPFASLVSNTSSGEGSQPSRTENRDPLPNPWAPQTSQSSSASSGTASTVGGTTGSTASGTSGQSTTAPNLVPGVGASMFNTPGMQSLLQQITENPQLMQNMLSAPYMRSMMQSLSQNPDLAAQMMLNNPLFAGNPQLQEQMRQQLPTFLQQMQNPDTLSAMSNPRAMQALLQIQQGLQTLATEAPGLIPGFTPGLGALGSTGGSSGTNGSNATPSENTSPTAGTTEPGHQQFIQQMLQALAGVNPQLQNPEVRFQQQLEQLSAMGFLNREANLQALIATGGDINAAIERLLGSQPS

T1: HA-tagged wild-type BET1 (human) (UniProt O15155)
T1 sequence: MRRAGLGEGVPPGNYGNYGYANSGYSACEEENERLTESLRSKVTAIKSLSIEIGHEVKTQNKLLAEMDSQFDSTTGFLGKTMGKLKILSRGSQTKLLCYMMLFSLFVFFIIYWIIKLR


Target: T1, HA-tagged wild-type BET1 (human)
Assay: affinity purification with mass spectrometry; HEK293T cells transiently transfected with HA-tagged wild-type BET1 or BET1 Ile51Ser (mock-transfected as control); three independent AP-MS experiments, spectral counts

Molecule | binding
Ubiquilin 1 (UBQLN1) (from UniProt Q9UMX0 1-589) | binds
GOSR2 (protein, UniProt O14653 1-212) MDPLFQQTHKQVHEIQSCMGRLETADKQSVHIVENEIQASIDQIFSRLERLEILSSKEPPNKRQNARLRVDQLKYDVQHLQTALRNFQHRRHAREQQERQREELLSRTFTTNDSDTTIPMDESLQFNSSLQKVHNGMDDLILDGHNILDGLRTQRLTLKGTQKKILDIANMLGLSNTVMRLIEKRAFQDKYFMIGGMLLTCVVMFLVVQYLT | binds
ERGIC-53 (protein, UniProt P49257 31-510) DGVGGDPAVALPHRRFEYKYSFKGPHLVQSDGTVPFWAHAGNAIPSSDQIRVAPSLKSQRGSVWTKTKAAFENWEVEVTFRVTGRGRIGADGLAIWYAENQGLEGPVFGSADLWNGVGIFFDSFDNDGKKNNPAIVIIGNNGQIHYDHQNDGASQALASCQRDFRNKPYPVRAKITYYQNTLTVMINNGFTPDKNDYEFCAKVENMIIPAQGHFGISAATGGLADDHDVLSFLTFQLTEPGKEPPTPDKEISEKEKEKYQEEFEHFQQELDKKKEEFQKGHPDLQGQPAEEIFESVGDRELRQVFEGQNRIHLEIKQLNRQLDMILDEQRRYVSSLTEEISKRGAGMPGQHGQITQQELDTVVKTQHEILRQVNEMKNSMSETVRLVSGMQHPGSAGGVYETTQHFIDIKEHLHIVKRDIDNLVQRNMPSNEKPKCPELPPFPSCLSTVHFIIFVVVQTVLFIGYIMYRSQQEAAAKKFF | binds
YKT6 (protein, UniProt O15498 1-198) MKLYSLSVLYKGEAKVVLLKAAYDVSSFSFFQRSSVQEFMTFTSQLIVERSSKGTRASVKEQDYLCHVYVRNDSLAGVVIADNEYPSRVAFTLLEKVLDEFSKQVDRIDWPVGSPATIHYPALDGHLSRYQNPREADPMTKVQAELDETKIILHNTMESLLERGEKLDDLVSKSEVLGTQSKAFYKTARKQNSCCAIM | binds
SEC20 (protein, UniProt Q12981 1-228) MAAPQDVHVRICNQEIVKFDLEVKALIQDIRDCSGPLSALTELNTKVKEKFQQLRHRIQDLEQLAKEQDKESEKQLLLQEVENHKKQMLSNQASWRKANLTCKIAIDNLEKAELLQGGDLLRQRKTTKESLAQTSSTITESLMGISRMMAQQVQQSEEAMQSLVTSSRTILDANEEFKSMSGTIQLGRKLITKYNRRELTDKLLIFLALALFLATVLYIVKKRLFPFL | binds
eukaryotic translation initiation factor 4E transporter (EIF4ENIF1) (protein, UniProt Q9NRA8 1-985) MDRRSMGETESGDAFLDLKKPPASKCPHRYTKEELLDIKELPHSKQRPSCLSEKYDSDGVWDPEKWHASLYPASGRSSPVESLKKELDTDRPSLVRRIVDPRERVKEDDLDVVLSPQRRSFGGGCHVTAAVSSRRSGSPLEKDSDGLRLLGGRRIGSGRIISARTFEKDHRLSDKDLRDLRDRDRERDFKDKRFRREFGDSKRVFGERRRNDSYTEEEPEWFSAGPTSQSETIELTGFDDKILEEDHKGRKRTRRRTASVKEGIVECNGGVAEEDEVEVILAQEPAADQEVPRDAVLPEQSPGDFDFNEFFNLDKVPCLASMIEDVLGEGSVSASRFSRWFSNPSRSGSRSSSLGSTPHEELERLAGLEQAILSPGQNSGNYFAPIPLEDHAENKVDILEMLQKAKVDLKPLLSSLSANKEKLKESSHSGVVLSVEEVEAGLKGLKVDQQVKNSTPFMAEHLEETLSAVTNNRQLKKDGDMTAFNKLVSTMKASGTLPSQPKVSRNLESHLMSPAEIPGQPVPKNILQELLGQPVQRPASSNLLSGLMGSLEPTTSLLGQRAPSPPLSQVFQTRAASADYLRPRIPSPIGFTPGPQQLLGDPFQGMRKPMSPITAQMSQLELQQAALEGLALPHDLAVQAANFYQPGFGKPQVDRTRDGFRNRQQRVTKSPAPVHRGNSSSPAPAASITSMLSPSFTPTSVIRKMYESKEKSKEEPASGKAALGDSKEDTQKASEENLLSSSSVPSADRDSSPTTNSKLSALQRSSCSTPLSQANRYTKEQDYRPKATGRKTPTLASPVPTTPFLRPVHQVPLVPHVPMVRPAHQLHPGLVQRMLAQGVHPQHLPSLLQTGVLPPGMDLSHLQGISGPILGQPFYPLPAASHPLLNPRPGTPLHLAMVQQQLQRSVLHPPGSGSHAAAVSVQTTPQNVPSRSGLPHMHSQLEHRPSQRSSSPVGLAKWFGSDVLQQPLPSMPAKVISVDELEYRQ | binds
DNAJC7 (protein, UniProt Q99615 1-494) MAAAAECDVVMAATEPELLDDQEAKREAETFKEQGNAYYAKKDYNEAYNYYTKAIDMCPKNASYYGNRAATLMMLGRFREALGDAQQSVRLDDSFVRGHLREGKCHLSLGNAMAACRSFQRALELDHKNAQAQQEFKNANAVMEYEKIAETDFEKRDFRKVVFCMDRALEFAPACHRFKILKAECLAMLGRYPEAQSVASDILRMDSTNADALYVRGLCLYYEDCIEKAVQFFVQALRMAPDHEKACIACRNAKALKAKKEDGNKAFKEGNYKLAYELYTEALGIDPNNIKTNAKLYCNRGTVNSKLRKLDDAIEDCTNAVKLDDTYIKAYLRRAQCYMDTEQYEEAVRDYEKVYQTEKTKEHKQLLKNAQLELKKSKRKDYYKILGVDKNASEDEIKKAYRKRALMHHPDRHSGASAEVQKEEEKKFKEVGEAFTILSDPKKKTRYDSGQDLDEEGMNMGDFDPNNIFKAFFGGPGGFSFEASGPGNFFFQFG | binds
